The target of this experiment is ANAPC11 (human (endogenous in T24 and UM-UC-3)) (UniProt Q9NYG5). The experiment can be described thus: affinity purification with mass spectrometry; IP of endogenous ANAPC11 from UM-UC-3 cell lysate on Protein A/G magnetic beads conjugated with antibody, 4 °C overnight; eluate to mass spectrometry.

Amino acid sequences for entries named in this document (tags omitted).
UniProt Q9NYG5: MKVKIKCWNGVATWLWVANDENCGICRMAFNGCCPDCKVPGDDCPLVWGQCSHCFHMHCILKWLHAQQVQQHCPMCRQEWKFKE
UniProt O43524: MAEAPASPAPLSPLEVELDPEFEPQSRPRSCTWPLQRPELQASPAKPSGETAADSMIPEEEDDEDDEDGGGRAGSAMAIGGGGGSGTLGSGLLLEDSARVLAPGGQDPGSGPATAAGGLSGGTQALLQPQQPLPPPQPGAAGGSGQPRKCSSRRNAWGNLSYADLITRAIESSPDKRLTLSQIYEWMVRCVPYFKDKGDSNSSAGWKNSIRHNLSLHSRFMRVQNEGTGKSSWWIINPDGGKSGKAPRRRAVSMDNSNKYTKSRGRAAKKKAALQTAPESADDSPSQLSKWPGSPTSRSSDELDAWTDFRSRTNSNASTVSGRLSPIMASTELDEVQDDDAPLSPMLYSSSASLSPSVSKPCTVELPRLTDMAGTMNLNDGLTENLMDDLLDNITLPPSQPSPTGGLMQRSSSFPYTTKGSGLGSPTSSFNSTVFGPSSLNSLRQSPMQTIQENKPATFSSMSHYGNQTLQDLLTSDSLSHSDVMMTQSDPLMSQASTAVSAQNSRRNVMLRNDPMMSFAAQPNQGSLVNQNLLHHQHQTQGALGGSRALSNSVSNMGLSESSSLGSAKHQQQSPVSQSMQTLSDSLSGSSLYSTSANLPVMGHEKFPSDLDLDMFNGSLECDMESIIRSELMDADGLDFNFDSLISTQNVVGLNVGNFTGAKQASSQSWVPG

Results are given in words; binding and its absence hold for the method and conditions named. Binding seen in cells or lysates may run through a third protein. A yes stands for co-enrichment or nearness to the bait. Other partners may have been found.

In the case of FOXO3 (from UniProt O43524 1-673), the binding entry is given as “binds”.
